No constants are given. Whether binding was seen depends on the method and setting. Some entries that bind do so weakly or less than the wild type. Sequences can lack the tags named with a protein. Values belong to the binder of their own block, whether it stands above or below them.
Assays:
Assay in all cases: two-hybrid
[1] = molecular target: T1, ABI5-Binding Protein 1 (AFP1), yeast two-hybrid fusions (Arabidopsis thaliana), Q9LQ98; conditions: remark: other sources report otherwise
T1 chain: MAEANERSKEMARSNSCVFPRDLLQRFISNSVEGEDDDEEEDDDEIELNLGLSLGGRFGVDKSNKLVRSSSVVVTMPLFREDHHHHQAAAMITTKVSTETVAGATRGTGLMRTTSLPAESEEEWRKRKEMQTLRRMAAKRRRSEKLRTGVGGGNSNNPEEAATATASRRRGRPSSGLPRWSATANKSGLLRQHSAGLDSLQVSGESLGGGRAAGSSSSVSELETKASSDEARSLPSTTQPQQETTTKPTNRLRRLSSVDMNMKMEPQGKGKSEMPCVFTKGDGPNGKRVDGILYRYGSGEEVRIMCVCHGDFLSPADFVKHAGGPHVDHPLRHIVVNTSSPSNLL

[2] = molecular target: T2, ABI5-Binding Protein 2 (AFP2), yeast two-hybrid fusions (Arabidopsis thaliana), Q9LMX5; conditions: remark: other sources report otherwise
T2 chain: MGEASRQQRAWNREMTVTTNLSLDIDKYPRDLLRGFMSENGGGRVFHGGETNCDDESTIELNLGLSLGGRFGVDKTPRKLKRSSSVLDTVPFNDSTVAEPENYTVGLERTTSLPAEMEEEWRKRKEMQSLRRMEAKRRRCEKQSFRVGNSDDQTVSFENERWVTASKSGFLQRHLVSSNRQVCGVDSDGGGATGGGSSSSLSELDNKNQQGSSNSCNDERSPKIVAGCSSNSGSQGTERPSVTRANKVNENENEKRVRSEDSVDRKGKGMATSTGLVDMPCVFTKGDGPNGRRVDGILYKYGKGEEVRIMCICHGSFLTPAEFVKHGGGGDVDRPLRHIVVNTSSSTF

[3] = molecular target: T3, ABI5-Binding Protein 3 (AFP3), yeast two-hybrid fusions (Arabidopsis thaliana), Q94F39; conditions: remark: other sources report otherwise
T3 chain: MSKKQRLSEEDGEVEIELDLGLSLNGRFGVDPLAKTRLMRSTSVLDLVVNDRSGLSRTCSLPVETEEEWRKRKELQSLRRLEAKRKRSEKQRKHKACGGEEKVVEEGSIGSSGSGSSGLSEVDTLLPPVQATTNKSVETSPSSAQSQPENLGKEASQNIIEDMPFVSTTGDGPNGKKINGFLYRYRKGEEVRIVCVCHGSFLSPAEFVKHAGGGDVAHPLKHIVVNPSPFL

[4] = molecular target: T4, ABI5-Binding Protein 4 (AFP4), yeast two-hybrid fusions (Arabidopsis thaliana), Q9S7Z2; conditions: remark: other sources report otherwise
T4 chain: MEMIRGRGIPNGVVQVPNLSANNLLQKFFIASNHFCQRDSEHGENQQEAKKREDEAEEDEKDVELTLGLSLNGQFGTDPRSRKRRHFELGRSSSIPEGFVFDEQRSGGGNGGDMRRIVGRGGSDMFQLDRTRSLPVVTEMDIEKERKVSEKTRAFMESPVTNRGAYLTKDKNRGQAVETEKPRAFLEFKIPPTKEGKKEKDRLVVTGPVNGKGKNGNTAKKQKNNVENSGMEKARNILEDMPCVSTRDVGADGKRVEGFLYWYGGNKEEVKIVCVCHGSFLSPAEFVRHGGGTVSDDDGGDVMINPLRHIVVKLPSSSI

[5] = molecular target: T5, ABI5-Binding Protein 2 (AFP2), yeast two-hybrid fusions (Arabidopsis thaliana) (UniProt Q9LMX5)
T5 sequence: T2 chain

[6] = molecular target: AFP2-AB domain, yeast two-hybrid fusions (Arabidopsis thaliana) (UniProt Q9LMX5)

binding [1]: binds
binding [2]: binds
binding [3]: binds
binding [4]: binds
B1: ABA-… …ON 3 (AHG3), AD fusion, P49598 1-399 (enzyme)
chain: MAGICCGVVGETEPAAPVDSTSRASLRRRLDLLPSIKIVADSAVAPPLENCRKRQKRETVVLSTLPGNLDLDSNVRSENKKARSAVTNSNSVTEAESFFSDVPKIGTTSVCGRRRDMEDAVSIHPSFLQRNSENHHFYGVFDGHGCSHVAEKCRERLHDIVKKEVEVMASDEWTETMVKSFQKMDKEVSQRECNLVVNGATRSMKNSCRCELQSPQCDAVGSTAVVSVVTPEKIIVSNCGDSRAVLCRNGVAIPLSVDHKPDRPDELIRIQQAGGRVIYWDGARVLGVLAMSRAIGDNYLKPYVIPDPEVTVTDRTDEDECLILASDGLWDVVPNETACGVARMCLRGAGAGDDSDAAHNACSDAALLLTKLALARQSSDNVSVVVVDLRKRRNNQASS

binding [5]: binds
binding [6]: no binding
B2: AFP2-AB domain, yeast two-hybrid fusions (domain or fragment, UniProt Q9LMX5 1-149)
chain: MGEASRQQRAWNREMTVTTNLSLDIDKYPRDLLRGFMSENGGGRVFHGGETNCDDESTIELNLGLSLGGRFGVDKTPRKLKRSSSVLDTVPFNDSTVAEPENYTVGLERTTSLPAEMEEEWRKRKEMQSLRRMEAKRRRCEKQSFRVGN

— paper doi:10.1101/2024.10.11.617944
